According to the supplement of paper PMC10849652:
The other results are listed elsewhere or left out.

Chains of the proteins cited; added tags and fusions are not shown. Lines headed by an entry give the natural chain unless they say otherwise; changes in a name come on top.
UniProt O14925: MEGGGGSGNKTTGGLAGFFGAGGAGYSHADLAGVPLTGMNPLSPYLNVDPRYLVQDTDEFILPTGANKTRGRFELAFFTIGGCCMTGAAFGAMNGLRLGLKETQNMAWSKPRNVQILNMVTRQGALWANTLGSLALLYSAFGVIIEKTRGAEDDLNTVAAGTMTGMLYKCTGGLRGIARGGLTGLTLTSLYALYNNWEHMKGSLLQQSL
UniProt Q04726: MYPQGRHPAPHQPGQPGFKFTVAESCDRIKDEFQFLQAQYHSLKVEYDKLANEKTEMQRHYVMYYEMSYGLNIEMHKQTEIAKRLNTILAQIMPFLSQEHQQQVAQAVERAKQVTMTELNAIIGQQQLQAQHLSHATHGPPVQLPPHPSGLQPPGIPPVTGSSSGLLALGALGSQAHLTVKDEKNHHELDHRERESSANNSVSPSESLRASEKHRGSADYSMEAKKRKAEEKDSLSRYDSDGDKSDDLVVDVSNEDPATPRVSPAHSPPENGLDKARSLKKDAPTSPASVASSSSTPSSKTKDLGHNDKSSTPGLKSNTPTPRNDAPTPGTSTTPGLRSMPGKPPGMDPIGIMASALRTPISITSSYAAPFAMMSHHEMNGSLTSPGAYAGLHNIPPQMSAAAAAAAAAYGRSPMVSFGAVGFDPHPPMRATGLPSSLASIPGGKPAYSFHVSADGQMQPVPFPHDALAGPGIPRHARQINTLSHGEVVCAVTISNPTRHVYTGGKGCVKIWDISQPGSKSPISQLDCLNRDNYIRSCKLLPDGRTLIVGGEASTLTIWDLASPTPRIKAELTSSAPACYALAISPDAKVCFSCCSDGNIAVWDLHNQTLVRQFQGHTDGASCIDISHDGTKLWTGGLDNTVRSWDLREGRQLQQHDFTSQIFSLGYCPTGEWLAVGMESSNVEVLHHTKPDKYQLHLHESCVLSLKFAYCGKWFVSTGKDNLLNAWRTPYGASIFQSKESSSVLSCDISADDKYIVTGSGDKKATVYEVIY
UniProt P21980: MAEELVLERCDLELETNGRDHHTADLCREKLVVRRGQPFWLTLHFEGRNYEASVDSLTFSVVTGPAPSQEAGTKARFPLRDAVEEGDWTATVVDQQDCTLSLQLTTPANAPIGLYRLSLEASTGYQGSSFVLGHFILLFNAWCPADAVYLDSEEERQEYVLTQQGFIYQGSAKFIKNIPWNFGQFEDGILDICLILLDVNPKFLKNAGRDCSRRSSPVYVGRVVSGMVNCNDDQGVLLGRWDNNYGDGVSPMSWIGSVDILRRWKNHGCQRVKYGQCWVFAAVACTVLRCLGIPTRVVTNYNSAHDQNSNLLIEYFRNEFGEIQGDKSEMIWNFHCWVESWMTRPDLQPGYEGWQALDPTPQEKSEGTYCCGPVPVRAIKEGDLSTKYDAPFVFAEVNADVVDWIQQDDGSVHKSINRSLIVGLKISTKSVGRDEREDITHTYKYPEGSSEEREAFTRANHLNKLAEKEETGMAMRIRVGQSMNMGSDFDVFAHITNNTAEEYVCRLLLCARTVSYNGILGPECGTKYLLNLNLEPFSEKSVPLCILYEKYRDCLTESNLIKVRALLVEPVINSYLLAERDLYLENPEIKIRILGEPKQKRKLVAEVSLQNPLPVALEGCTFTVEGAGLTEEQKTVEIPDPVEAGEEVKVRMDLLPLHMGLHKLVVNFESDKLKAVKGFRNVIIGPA
UniProt Q9Y5J9: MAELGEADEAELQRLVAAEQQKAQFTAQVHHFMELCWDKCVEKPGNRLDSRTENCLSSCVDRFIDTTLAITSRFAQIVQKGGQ
UniProt Q07157: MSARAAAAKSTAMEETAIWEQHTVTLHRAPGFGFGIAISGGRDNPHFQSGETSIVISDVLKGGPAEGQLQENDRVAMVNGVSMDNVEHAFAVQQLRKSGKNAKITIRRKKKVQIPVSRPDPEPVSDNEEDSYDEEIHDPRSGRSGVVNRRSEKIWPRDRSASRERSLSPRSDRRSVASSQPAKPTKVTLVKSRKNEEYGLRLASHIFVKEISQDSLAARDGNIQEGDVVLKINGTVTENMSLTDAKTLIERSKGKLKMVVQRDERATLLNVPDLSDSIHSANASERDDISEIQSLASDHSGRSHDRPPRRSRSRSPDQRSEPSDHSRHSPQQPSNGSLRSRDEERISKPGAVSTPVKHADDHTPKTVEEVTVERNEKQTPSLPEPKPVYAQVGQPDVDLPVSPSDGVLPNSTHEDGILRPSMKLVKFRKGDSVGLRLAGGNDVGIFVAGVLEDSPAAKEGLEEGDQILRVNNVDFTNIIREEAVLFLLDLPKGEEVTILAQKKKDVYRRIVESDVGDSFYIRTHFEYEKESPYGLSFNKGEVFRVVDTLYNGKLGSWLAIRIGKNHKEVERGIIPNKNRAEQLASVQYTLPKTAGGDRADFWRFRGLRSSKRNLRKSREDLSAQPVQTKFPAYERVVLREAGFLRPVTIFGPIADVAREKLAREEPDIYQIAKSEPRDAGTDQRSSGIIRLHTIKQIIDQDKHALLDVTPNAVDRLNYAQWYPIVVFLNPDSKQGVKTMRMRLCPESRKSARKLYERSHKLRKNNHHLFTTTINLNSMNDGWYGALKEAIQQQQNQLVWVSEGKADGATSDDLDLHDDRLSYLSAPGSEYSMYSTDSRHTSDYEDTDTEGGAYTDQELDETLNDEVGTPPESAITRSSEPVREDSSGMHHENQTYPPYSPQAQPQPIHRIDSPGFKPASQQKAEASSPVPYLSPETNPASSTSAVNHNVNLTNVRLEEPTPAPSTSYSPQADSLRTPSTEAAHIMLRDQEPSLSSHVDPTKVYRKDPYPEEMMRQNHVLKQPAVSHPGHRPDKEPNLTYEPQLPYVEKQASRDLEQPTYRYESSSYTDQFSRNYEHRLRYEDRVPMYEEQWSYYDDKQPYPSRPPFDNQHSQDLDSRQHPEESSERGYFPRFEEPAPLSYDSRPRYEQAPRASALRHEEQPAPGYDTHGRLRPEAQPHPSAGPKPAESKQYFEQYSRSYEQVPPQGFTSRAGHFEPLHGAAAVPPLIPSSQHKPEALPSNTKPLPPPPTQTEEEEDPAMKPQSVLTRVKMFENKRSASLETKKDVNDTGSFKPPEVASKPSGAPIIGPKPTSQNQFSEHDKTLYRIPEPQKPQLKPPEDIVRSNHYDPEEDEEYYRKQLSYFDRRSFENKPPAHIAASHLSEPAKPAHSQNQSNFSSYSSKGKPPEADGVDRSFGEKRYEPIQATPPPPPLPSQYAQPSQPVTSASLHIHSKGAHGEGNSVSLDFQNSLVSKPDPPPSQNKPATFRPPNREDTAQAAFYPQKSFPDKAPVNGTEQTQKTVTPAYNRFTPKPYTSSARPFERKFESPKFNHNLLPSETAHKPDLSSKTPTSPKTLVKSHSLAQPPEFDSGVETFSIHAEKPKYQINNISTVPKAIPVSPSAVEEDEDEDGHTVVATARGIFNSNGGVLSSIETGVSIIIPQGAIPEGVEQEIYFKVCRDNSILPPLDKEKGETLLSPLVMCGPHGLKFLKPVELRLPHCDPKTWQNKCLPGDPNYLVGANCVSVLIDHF
UniProt Q8TC07: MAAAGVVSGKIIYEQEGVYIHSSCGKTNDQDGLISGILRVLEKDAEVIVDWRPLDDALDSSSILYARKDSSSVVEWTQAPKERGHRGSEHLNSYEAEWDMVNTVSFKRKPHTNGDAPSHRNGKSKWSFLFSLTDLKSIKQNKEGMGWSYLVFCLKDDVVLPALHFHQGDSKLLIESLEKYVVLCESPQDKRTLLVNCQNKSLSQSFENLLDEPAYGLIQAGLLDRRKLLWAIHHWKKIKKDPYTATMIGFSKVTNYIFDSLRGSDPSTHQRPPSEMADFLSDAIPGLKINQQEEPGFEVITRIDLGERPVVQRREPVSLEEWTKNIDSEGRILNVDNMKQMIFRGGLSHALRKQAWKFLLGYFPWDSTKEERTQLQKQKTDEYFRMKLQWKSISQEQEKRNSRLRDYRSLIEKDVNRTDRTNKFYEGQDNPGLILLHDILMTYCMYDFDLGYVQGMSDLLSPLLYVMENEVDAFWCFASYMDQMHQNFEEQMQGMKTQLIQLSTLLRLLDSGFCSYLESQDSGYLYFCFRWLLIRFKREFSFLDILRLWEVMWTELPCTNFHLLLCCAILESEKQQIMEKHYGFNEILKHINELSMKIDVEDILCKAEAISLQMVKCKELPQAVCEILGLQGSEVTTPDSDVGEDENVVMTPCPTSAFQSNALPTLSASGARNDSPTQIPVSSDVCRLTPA
UniProt Q6I9Y2: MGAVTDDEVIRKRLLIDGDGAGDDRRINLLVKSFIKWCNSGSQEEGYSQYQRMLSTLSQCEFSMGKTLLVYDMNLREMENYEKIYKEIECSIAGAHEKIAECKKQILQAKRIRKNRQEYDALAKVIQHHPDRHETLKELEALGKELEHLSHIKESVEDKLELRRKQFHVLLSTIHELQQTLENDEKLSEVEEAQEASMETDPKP
UniProt O60220: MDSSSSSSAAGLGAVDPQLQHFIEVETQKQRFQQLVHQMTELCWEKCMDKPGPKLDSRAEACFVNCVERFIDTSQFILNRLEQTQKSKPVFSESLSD
UniProt Q9P0N9: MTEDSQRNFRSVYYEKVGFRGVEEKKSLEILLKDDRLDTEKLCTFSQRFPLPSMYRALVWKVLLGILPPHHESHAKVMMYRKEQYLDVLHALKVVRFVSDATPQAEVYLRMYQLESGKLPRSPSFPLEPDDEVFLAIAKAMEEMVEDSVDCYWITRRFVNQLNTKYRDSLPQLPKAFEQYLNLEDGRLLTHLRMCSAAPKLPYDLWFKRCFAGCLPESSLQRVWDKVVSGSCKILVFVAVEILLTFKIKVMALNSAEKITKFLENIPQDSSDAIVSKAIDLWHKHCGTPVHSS
UniProt Q99081: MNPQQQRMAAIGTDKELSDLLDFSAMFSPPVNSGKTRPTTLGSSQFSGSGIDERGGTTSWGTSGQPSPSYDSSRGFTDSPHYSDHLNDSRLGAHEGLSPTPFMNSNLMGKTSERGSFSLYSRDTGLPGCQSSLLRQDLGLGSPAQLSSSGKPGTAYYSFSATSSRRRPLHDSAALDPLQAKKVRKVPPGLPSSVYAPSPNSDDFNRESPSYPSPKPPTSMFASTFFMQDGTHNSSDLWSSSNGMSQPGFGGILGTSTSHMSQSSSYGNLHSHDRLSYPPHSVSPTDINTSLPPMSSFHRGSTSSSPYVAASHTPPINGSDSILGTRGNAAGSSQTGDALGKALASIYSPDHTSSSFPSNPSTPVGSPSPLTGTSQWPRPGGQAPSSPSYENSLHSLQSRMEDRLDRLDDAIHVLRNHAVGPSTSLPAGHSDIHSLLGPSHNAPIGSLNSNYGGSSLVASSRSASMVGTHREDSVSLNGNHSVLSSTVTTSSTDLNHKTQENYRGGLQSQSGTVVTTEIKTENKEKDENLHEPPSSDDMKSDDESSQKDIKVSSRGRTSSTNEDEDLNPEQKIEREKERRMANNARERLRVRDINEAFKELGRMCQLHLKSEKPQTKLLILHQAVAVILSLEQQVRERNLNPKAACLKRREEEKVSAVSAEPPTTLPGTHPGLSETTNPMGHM
UniProt Q9Y4R8, whole entry, looked up: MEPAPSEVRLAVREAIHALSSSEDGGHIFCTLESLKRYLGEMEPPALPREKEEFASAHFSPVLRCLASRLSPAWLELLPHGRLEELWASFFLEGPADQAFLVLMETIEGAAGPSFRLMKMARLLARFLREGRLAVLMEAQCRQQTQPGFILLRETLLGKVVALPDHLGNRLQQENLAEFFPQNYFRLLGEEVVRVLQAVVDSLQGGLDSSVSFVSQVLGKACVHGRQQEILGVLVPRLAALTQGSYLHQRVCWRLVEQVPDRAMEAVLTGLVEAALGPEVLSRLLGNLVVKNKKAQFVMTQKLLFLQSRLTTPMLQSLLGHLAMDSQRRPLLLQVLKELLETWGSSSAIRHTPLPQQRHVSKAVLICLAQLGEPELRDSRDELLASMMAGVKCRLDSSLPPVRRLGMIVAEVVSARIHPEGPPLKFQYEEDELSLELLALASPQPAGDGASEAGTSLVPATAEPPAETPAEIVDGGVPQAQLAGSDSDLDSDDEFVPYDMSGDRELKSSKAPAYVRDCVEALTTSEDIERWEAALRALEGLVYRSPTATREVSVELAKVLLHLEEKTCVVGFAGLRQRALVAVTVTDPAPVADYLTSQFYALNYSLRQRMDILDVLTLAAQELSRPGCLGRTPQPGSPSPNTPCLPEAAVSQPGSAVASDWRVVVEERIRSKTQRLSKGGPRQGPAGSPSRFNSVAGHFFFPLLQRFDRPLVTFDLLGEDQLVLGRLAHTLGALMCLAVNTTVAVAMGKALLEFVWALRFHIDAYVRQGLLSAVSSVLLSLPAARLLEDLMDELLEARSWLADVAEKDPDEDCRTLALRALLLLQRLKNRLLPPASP
UniProt P04183: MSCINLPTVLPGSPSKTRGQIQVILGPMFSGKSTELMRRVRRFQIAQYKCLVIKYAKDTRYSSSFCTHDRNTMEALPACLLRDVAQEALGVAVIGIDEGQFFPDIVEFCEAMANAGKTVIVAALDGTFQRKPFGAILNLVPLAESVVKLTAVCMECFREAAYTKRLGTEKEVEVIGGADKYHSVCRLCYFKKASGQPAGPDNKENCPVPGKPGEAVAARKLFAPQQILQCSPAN

What was measured:
Assay in all cases: log2 fold change, soluble protein after heating vs DMSO (PISA); higher = thermal stabilisation; K562 cells, 10 uM, 30 min; active = over 0.2 and 3.5 SD of the protein, either way, in both replicates (recomputed)
[1] = compound: C1=CC=C(C=C1)[C@H](COC2=CC3=C(C=C2)NC(=O)N3)NC(=O)C4=CC=CN(C4=O)CC5=CC(=C(C=C5)F)F
Method in brief: (§1)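 K562 cells at 2×10^6 cells/mL were given 10 μM compound for 30 min. Aliquots then went through 3 min of heating across 48°C-58°C, were pooled, and were extracted in PBS with 0.5% NP-40 at 4°C, and the supernatant after 21,000xg for 90 min was quantified by TMTpro 16plex LC-MS/MS with channel sums equalised. Thermal stability relative to control samples, from duplicates, is given as log2 fold change.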

[2] = compound: CC1=C(SC2=C1C(=N[C@H](C3=NN=C(N32)C)CC(=O)N)C4=CC=C(C=C4)Cl)C
Method in brief: as §1

[3] = compound: CC1=C2C(=CC=C1)N=C(N(C2=O)C3=CC=CC=C3C)CN4C=NC5=C(N=CN=C54)N
Method in brief: as §1

[4] = compound: Cc1sc2c(c1C)C(c1ccc(Cl)cc1)=N[C@@H](CC(=O)OC(C)(C)C)c1nnc(C)n1-2
Method in brief: as §1

[5] = compound: c1ccc([C@@H]2C[C@H]2NC2CCNCC2)cc1
Method in brief: as §1

Measured: log2 fold change

TIAL1 isoform 2 (UniProt Q01085)
inactive: [1] -0.023 | [2] 0.049 | [3] 0.015 | [4] 0.043 | [5] -0.024

TBC1D2B (UniProt Q9UPU7)
inactive: [1] 0.119

TEX10 (UniProt Q9NXF1)
inactive: [1] 0.03

TBP (UniProt P20226)
inactive: [1] 0.016 | [2] 0.314 | [3] -0.158 | [4] 0.144 | [5] 0.07

TIMM23 (UniProt O14925)
inactive: [1] 0 | [2] -0.016 | [3] -0.085 | [4] -0.002 | [5] 0.049

Two records drawn at random from those above, as already listed:
TBP (UniProt P20226)
inactive: [1] 0.016 | [2] 0.314 | [3] -0.158 | [4] 0.144 | [5] 0.07

TEX10 (UniProt Q9NXF1)
inactive: [1] 0.03

The results go on.

TK2 isoform 6 (UniProt O00142)
inactive: [1] 0.111 | [2] -0.107 | [3] 0.051 | [4] 0.008 | [5] 0.021

TLE3 isoform 4 (UniProt Q04726)
inactive: [1] 0.028 | [2] 0.033 | [3] 0.029 | [4] -0.051 | [5] 0.009

TGM2 (UniProt P21980)
inactive: [1] -0.013 | [2] 0.014 | [3] 0.002 | [4] -0.082 | [5] 0.016

TIMM8B (UniProt Q9Y5J9)
inactive: [1] 0 | [2] -0.058 | [3] -0.031 | [4] -0.112 | [5] 0.018

TJP1 (UniProt Q07157)
inactive: [1] 0 | [2] 0.028 | [3] 0.069 | [4] 0.014 | [5] 0.023

TBC1D15 isoform 3 (UniProt Q8TC07)
inactive: [1] -0.072 | [2] 0.013 | [3] 0.045 | [4] 0.005 | [5] -0.019

THOC7 (UniProt Q6I9Y2)
inactive: [1] 0.041 | [2] 0.056 | [3] 0.039 | [4] 0.04 | [5] 0.022

TBC1D13 (UniProt Q9NVG8)
inactive: [1] -0.013 | [2] 0.035 | [3] 0.069 | [4] -0.033 | [5] -0.008

THOP1 (UniProt P52888)
inactive: [1] 0.024 | [2] 0.022 | [3] 0.022 | [4] -0.032 | [5] 0.017

TIGAR (UniProt Q9NQ88)
inactive: [1] -0.215

TGFBI (UniProt Q15582)
inactive: [1] -0.115 | [2] -0.024 | [3] 0.019 | [4] -0.048 | [5] -0.08

TFB2M (UniProt Q9H5Q4)
inactive: [1] -0.019 | [2] 0.035 | [3] 0.103 | [4] -0.019 | [5] -0.022

TIMM8A (UniProt O60220)
inactive: [1] 0.034 | [2] -0.055 | [3] -0.187 | [4] -0.052 | [5] -0.072

TBC1D7 (UniProt Q9P0N9)
inactive: [1] -0.181

TCF12 isoform 3 (UniProt Q99081)
inactive: [1] 0.198 | [2] 0.022 | [3] 0.054 | [4] -0.056 | [5] 0.026

THTPA (UniProt Q9BU02)
inactive: [1] -0.08 | [2] -0.002 | [3] 0.085 | [4] 0.012 | [5] 0.047

THG1L (UniProt Q9NWX6)
inactive: [1] 0.014 | [2] 0.084 | [3] 0.036 | [4] 0.014 | [5] -0.017

TET1 (UniProt Q8NFU7)
inactive: [1] 0.042 | [2] 0.101 | [3] 0.219 | [4] -0.045 | [5] -0.019

TFR2 (UniProt Q9UP52)
inactive: [1] 0.01 | [2] 0.018 | [3] 0.004 | [4] 0.007 | [5] 0.026

TEX264 (UniProt Q9Y6I9)
inactive: [1] -0.024 | [2] 0.03 | [3] -0.072 | [4] -0.084 | [5] -0.02

TELO2 (UniProt Q9Y4R8)
inactive: [1] -0.031 | [2] -0.05 | [3] 0.037 | [4] 0.039 | [5] 0.005

TK1 (UniProt P04183)
inactive: [1] 0.002 | [2] -0.008 | [3] -0.011 | [4] -0.019 | [5] 0.008
